# In patent US20260137697A1, “THIAZOLO[5,4-D]PYRIMIDINE COMPOUNDS, COMPOSITIONS COMPRISING THEM AND USES THEREOF” (University de Montreal, priority 2022, published 2026):
# Some results were stated once for a whole list of compounds, not compound by compound.
# System: pERK, HCT116 cells
# Test: Phospho-ERK inhibition, AlphaLISA p-ERK 1/2, HCT-116
# Type: cell-based, human
# Details: FIG. 1; RAS-mutant HCT116 cells; negative = paradoxical induction of pERK signaling
# Protocol: All cancer cell lines (A375, A101D, A2058, RKO, HT29 SK-MEL 30, IPC298, HepG2, HCT-116, Lovo, SW620, SW480, NCI-H358, NCI-H2122, Calu-6, NCIH2087, NCIH1755, NCIH1666 and Mewo) were obtained from ATCC and cultured in RPM1-1640 medium (Gibco) supplemented with 5% heat inactivated fetal bovine serum (FBS, Wisent) at 37° C. under 5% CO2. Cells were maintained in T175 flasks (Greiner). They were passaged by removing the culture medium, washing once in 10 mL of room temperature Phosphate Buffered Saline (PBS; Wisent) and incubating at 37° C. with 2 mL of 0.05% Trypsin (Thermo-Fisher). […]
# After treatment, media was removed, and cells were lysed in 50 μL of 1× AlphaScreen Ultra Lysis Buffer (Perkin Elmer). […] After completion of the reactions, the signals were recorded on an EnVision plate reader (Perkin Elmer) using built in AlphaLISA® settings.
# The effect of each compound dilution on the pERK signal was expressed in % inhibition and calculated as follows. […]
# The ability of each compound to inhibit pERK signal was expressed as an IC50 value obtained by plotting the inhibition values for each data point of a dilution series and fitting the obtained curves using a log(agonist) versus response—variable slope (four parameters) function using GraphPadPrism (V7.0) or Dotmatics Screening Ultra platform. […]
row,Structure (SMILES),YMIN of pERK IC50 inhibition dose response curve
1,N#CC1(c2cccc3c2ncn3-c2nc3c(Nc4c(F)ccc(NS(=O)(=O)c5cccc(Cl)c5Cl)c4F)ncnc3s2)CC1 [Example 122],> −20%
2,Cc1c(F)cccc1S(=O)(=O)Nc1ccc(F)c(Nc2ncnc3sc(-n4cc(C(=O)N5C6CCC5CN(C)C6)c5ccccc54)nc23)c1F [Example 44],> −20%
